Measured values taken from the supplement of paper PMC10849652.
This is one part of the list.

Protein sequences, listed by entry. Tags and fused reporters are not part of them. Lines headed by an entry give the natural chain unless they say otherwise; changes in a name come on top.
UniProt P63208, whole entry, looked up: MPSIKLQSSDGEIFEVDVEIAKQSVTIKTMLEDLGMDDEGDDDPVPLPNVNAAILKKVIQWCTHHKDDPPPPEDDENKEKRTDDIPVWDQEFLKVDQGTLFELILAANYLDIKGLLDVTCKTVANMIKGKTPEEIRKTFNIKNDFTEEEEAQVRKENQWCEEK
UniProt P41440: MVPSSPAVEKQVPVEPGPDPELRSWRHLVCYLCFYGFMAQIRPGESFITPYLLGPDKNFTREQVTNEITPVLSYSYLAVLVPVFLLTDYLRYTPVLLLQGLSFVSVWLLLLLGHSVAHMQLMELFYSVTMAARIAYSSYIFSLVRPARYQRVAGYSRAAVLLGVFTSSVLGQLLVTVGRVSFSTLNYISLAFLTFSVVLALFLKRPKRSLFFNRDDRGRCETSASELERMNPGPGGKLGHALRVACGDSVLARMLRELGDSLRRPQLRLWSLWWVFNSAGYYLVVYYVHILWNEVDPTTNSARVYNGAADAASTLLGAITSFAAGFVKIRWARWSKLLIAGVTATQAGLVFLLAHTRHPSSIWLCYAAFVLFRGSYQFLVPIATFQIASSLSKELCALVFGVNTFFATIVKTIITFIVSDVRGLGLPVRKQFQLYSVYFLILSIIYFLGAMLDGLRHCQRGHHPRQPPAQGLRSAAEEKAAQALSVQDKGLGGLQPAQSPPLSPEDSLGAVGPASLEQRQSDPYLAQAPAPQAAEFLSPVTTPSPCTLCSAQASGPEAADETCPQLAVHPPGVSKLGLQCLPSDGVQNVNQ
UniProt Q9H9B4: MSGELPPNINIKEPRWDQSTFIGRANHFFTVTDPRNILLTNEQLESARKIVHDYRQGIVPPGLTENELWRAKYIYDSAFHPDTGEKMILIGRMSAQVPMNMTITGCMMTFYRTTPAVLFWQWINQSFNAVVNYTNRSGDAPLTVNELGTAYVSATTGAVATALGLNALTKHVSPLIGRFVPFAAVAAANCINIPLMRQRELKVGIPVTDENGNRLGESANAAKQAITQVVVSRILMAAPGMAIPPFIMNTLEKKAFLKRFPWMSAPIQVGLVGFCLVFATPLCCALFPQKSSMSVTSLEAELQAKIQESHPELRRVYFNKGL
UniProt Q14493, whole entry, looked up: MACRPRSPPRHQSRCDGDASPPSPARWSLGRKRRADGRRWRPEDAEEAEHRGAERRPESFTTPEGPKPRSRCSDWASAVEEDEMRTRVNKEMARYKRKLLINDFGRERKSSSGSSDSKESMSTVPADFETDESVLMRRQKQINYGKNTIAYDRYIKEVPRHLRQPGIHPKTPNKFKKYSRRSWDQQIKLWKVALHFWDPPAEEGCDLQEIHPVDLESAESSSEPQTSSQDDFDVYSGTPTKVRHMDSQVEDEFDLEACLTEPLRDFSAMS
UniProt Q96ES7: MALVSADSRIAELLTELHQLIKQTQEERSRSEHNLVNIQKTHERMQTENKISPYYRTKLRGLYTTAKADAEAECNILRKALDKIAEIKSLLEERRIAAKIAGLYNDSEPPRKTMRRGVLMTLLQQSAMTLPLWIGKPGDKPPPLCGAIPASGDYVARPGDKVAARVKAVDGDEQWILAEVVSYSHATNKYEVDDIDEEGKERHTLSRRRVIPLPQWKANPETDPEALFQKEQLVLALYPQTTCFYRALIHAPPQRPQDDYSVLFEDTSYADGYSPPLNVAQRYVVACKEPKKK
UniProt P36955: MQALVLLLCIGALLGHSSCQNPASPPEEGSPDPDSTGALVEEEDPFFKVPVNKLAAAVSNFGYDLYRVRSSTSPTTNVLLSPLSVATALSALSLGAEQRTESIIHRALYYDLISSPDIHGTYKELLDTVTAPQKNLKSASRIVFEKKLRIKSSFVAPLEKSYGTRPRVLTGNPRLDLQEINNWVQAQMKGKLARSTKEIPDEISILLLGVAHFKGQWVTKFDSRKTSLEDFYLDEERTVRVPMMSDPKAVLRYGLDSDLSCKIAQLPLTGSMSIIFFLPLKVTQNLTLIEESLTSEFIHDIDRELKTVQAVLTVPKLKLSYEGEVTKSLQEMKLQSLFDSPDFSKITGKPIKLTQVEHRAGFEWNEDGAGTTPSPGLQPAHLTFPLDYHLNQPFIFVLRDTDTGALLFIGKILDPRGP
UniProt P53985: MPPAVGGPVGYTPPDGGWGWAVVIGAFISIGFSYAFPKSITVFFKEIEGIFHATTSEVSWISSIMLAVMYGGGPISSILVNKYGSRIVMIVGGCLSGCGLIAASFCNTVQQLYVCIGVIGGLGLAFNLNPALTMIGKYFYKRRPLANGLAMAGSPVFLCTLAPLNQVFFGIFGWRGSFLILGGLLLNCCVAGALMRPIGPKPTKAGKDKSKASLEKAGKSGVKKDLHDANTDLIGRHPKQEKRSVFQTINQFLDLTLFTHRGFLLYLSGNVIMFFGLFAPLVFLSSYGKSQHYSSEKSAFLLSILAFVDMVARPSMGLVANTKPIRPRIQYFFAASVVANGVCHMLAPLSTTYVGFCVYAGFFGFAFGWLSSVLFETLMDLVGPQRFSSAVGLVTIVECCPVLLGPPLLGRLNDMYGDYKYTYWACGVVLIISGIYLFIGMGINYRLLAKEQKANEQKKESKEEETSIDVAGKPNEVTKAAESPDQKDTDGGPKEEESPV
UniProt P84101: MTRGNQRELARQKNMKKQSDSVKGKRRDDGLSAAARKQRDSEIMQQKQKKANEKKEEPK
UniProt Q99963: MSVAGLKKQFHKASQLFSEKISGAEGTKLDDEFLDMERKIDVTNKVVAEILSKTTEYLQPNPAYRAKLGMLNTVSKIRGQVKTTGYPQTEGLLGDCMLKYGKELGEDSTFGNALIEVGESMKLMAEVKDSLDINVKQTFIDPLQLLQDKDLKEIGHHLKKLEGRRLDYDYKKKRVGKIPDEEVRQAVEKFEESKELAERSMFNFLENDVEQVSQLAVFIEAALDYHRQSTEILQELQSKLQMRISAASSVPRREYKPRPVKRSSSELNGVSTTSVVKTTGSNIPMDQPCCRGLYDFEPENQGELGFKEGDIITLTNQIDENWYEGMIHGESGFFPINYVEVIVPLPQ

Key:
Assay in all cases: log2 fold change, soluble protein after heating vs DMSO (PISA); higher = thermal stabilisation; K562 lysate, 10 uM; active = over 0.2 and 3.5 SD of the protein, either way, in both replicates (recomputed)
[1] = compound: C1=CC=C(C=C1)[C@H](COC2=CC3=C(C=C2)NC(=O)N3)NC(=O)C4=CC=CN(C4=O)CC5=CC(=C(C=C5)F)F
Method in brief: (§1)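 Following dounce homogenisation of K562 pellets in PBS pH 7.4 with 1 mM MgCl2, crude extract at 1 mg/mL protein was incubated for 30 min with 10 μM compound. Aliquots were then heated for 3 min over 48°C-58°C and pooled, NP-40 was added to 0.5% at 4°C, and soluble protein was recovered as the supernatant at 21,000xg for 90 min. Channel-sum-equalised TMTpro 16plex LC-MS/MS quantified this protein. Each value, from duplicates, is a log-two fold change in thermal stability relative to solvent controls.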

[2] = compound: CC1=C(SC2=C1C(=N[C@H](C3=NN=C(N32)C)CC(=O)N)C4=CC=C(C=C4)Cl)C
Method in brief: as §1

[3] = compound: CC1=C2C(=CC=C1)N=C(N(C2=O)C3=CC=CC=C3C)CN4C=NC5=C(N=CN=C54)N
Method in brief: as §1

[4] = compound: Cc1sc2c(c1C)C(c1ccc(Cl)cc1)=N[C@@H](CC(=O)OC(C)(C)C)c1nnc(C)n1-2
Method in brief: as §1

[5] = compound: c1ccc([C@@H]2C[C@H]2NC2CCNCC2)cc1
Method in brief: as §1

Measured: log2 fold change

SKP1 (UniProt P63208)
inactive: [1] 0.032 | [2] -0.107 | [3] -0.022 | [4] -0.015 | [5] -0.04

SLC19A1 (UniProt P41440)
inactive: [1] 0.017 | [2] -0.022 | [3] -0.056 | [4] -0.12 | [5] -0.176

SFXN1 (UniProt Q9H9B4)
inactive: [1] -0.018 | [2] 0.014 | [3] 0.031 | [4] 0.026 | [5] 0.026

SLBP (UniProt Q14493)
inactive: [1] 0.044 | [2] 0.024 | [3] 0.056 | [4] 0.061 | [5] 0.036

SGF29 (UniProt Q96ES7)
inactive: [1] 0.031 | [2] 0.044 | [3] -0.121 | [4] -0.052 | [5] 0.03

SERPINF1 (UniProt P36955)
inactive: [1] 0.037 | [2] 0.112 | [3] 0.025 | [4] -0.026 | [5] 0.013

SLC16A1 (UniProt P53985)
inactive: [1] -0.015 | [2] 0.002 | [3] 0.042 | [4] 0.077 | [5] -0.245

SERF2 (UniProt P84101)
inactive: [1] 0.095 | [2] -0.019 | [3] -0.126 | [4] -0.126 | [5] -0.011

SH3GL3 isoform 3 (UniProt Q99963)
inactive: [1] 0.024 | [2] 0.033 | [3] 0.133 | [4] -0.169 | [5] -0.416
